Results are given in words; binding and its absence hold for the method and conditions named. Some entries that bind do so weakly or less than the wild type.
Biological target: Etv5 (mouse (endogenous in murine leukemic B-cell progenitors)) (UniProt Q9CXC9)
Assay: western blot of whole cell lysate; western blot of Etv5 in WT, aPKCζ-/-, aPKCλΔ/Δ and DKO B-cell progenitors with or without BCR-ABL expression; RIPA lysates, SDS-PAGE

By UniProt entry, the sequences of proteins in these tests, tags left out.
UniProt Q9CXC9: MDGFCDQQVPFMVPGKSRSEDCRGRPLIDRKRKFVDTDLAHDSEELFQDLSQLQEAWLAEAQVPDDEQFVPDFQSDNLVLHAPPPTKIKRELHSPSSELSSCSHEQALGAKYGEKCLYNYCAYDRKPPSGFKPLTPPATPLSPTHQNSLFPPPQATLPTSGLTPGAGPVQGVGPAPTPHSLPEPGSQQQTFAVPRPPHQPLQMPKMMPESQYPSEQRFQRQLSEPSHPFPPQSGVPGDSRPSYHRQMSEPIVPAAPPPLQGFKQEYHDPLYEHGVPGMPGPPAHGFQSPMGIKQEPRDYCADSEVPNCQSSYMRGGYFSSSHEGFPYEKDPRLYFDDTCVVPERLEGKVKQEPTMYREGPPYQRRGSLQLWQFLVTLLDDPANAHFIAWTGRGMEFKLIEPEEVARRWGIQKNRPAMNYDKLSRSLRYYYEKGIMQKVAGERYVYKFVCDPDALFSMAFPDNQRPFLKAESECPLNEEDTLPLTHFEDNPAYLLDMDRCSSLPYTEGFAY

binding: binds
Substance: Etv5 (from UniProt Q9CXC9 1-510)

— article PMC6320370
